From the supplement of paper PMC12823440, “Inhibitors supercharge kinase turnover through native proteolytic circuits” (Nature, 2025)
Some of the results follow. Hit calls seldom repeat between salt and free forms of one compound.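 Kinases, fused to nanoluciferase, were expressed in K562 cells; luminescence was measured every 4 h from 2 to 18 h as percent of control (DMSO = 100%, positive control = 0%). A time point is decreased if signal falls significantly (2 sigma). Hits were called by the authors by a rule that is not shown; the count of time points alone does not decide it.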

The chains behind the UniProt entries cited, without tags or fusion partners. Where a name states a change or a piece, a line headed by the entry shows the natural chain unless it says otherwise.
UniProt Q92630: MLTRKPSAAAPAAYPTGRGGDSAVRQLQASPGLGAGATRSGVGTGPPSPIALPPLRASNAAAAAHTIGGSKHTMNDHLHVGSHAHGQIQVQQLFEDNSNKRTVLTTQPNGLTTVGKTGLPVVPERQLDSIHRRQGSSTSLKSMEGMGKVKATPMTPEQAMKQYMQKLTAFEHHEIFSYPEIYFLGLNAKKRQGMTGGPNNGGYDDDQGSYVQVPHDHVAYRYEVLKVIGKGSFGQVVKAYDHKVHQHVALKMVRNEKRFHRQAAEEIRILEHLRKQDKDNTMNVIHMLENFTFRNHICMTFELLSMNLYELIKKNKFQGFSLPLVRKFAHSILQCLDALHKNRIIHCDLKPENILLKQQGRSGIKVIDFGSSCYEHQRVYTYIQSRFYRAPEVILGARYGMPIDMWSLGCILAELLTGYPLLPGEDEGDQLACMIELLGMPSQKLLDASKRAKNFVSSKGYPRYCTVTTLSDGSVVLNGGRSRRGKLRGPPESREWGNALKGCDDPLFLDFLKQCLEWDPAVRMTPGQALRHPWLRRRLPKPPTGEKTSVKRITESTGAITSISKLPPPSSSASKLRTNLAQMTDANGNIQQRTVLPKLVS

biological target: DYRK2 (UniProt Q92630); test: kinase-Nluc reporter destabilization hit call (1 = scored as downregulated) (binary); higher = compound decreases kinase abundance; settings: K562; 2-18 h

kinase-Nluc reporter destabilization hit call, inactive:
COc1cc2ncn(-c3cc(OCc4ccccc4C(F)(F)F)c(C(N)=O)s3)c2cc1OC (10 µM) 0, CCn1cc(-c2ccnc3[nH]c(-c4cccc(CN(C)C)c4)cc23)c(-c2ccc(NC(=O)N(C)C)cc2)n1 (2.5 µM) 0, O=C1c2ccccc2-c2n[nH]c3cccc1c23 (10 µM) 0, C[C@]1(O)C[C@@H](c2nc(-c3ccc4ccc(-c5ccccc5)nc4c3)c3c(N)nccn32)C1 [Linsitinib] (2.5 µM) 0, C[C@H](CN(C)C)Oc1nc(Nc2cc3cccc(Cl)c3cn2)cnc1C#N (10 µM) 0, Cc1cc(C)c(/C=C2\C(=O)Nc3ccccc32)[nH]1 [Semaxinib] (10 µM) 0, Cc1cccc(Cn2nc(C3CC3)c3c(NC(=O)c4cnc5cc(OCCN6CCN(C)CC6)ccn45)cccc32)n1 (10 µM) 0, COc1cc(OC)cc(-c2cc3cnc(N)nc3nc2NC(=O)NC(C)(C)C)c1 (10 µM) 0, CN(c1ncccc1CNc1nc(Nc2ccc3c(c2)CC(=O)N3)ncc1C(F)(F)F)S(C)(=O)=O (2.5 µM) 0, COc1ccc2c(C(=O)Nc3ccc(NC(=O)c4nn(C5CCN(C(=O)CC(C)(C)C#N)CC5)c5ccc(F)cc45)cc3Cl)cnn2c1 [Src Inhibitor 3] (2.5 µM) 0, Oc1ccc(-c2nc(-c3ccc(F)cc3)c(-c3ccncc3)[nH]2)cc1 (2.5 µM) 0, COc1cc(Nc2ncc3c(n2)-c2ccc(Cl)cc2C(c2c(F)cccc2OC)=NC3)ccc1C(=O)O [Alisertib] (2.5 µM) 0, O=c1c(-c2ccc(O)cc2)coc2cc(O)cc(O)c12 [Genistein] (10 µM) 0, CN1CCN(c2ccc(C(=O)Nc3n[nH]c4ccc(Cc5cc(F)cc(F)c5)cc34)c(NC3CCOCC3)c2)CC1 [Entrectinib] (2.5 µM) 0, CCN1CCN(Cc2ccc(C(=O)Nc3ccc(C)c(Oc4ccc5c(c4)CC(=O)N5)c3)cc2C(F)(F)F)CC1 (2.5 µM) 0

biological target: EGFR (UniProt P00533); test: as above; settings: K562; 2-18 h

kinase-Nluc reporter destabilization hit call, inactive:
CC(C)(C)n1nc(Cc2cccc3ccccc23)c2c(N)ncnc21 (10 µM) 0, CC1(C)CC=C(c2nc(C3CC(C)(C)OC(C)(C)C3)ccc2NC(=O)c2nc(C#N)c[nH]2)CC1 [Edicotinib] (2.5 µM) 0, Cc1nc(-c2cnc(NC(C)C)n(C)c2=O)ccc1Oc1ccnc(-c2cnn(C)c2)c1 (2.5 µM) 0, CN(C)C(=O)/C(C#N)=C/c1ccc(-c2nc3cnc4[nH]ccc4c3n2C2CCCCC2)o1 (10 µM) 0, CCCS(=O)(=O)Nc1ccc(F)c(C(=O)c2c[nH]c3ncc(Cl)cc23)c1F (10 µM) 0, CNC(=O)c1cccc(-c2ccc3c(N4CCOC[C@@H]4C)nc(N4CCOC[C@@H]4C)nc3n2)c1 [Vistusertib] (2.5 µM) 0, COCCNCCc1cccc(Nc2ncc3c(n2)-c2ccccc2[C@H](c2ccccc2F)C3)c1 [Derazantinib] (2.5 µM) 0, COc1ccc(COc2ccc(Cc3cnc(N)nc3N)cc2OC)cc1 (10 µM) 0, CC(=O)N1CCN(c2ccc(OCC3COC(Cn4ccnc4)(c4ccc(Cl)cc4Cl)O3)cc2)CC1 (stereo unspecified) [Ketoconazole] (2.5 µM) 0, Cc1ccc(F)c(NC(=O)Nc2ccc(-c3cccc4[nH]nc(N)c34)cc2)c1 [Linifanib] (2.5 µM) 0, NC(=O)c1ccc2nc(-c3ccc(Oc4ccc(Cl)cc4)cc3)[nH]c2c1 (10 µM) 0, CC(C)(C)c1cc(NC(=O)Nc2ccc(-c3cn4c(n3)sc3cc(OCCN5CCOCC5)ccc34)cc2)no1 [Quizartinib] (10 µM) 0, COc1cc2ncn(-c3cc(OCc4ccccc4C(F)(F)F)c(C(N)=O)s3)c2cc1OC (10 µM) 0, CCn1cc(-c2ccnc3[nH]c(-c4cccc(CN(C)C)c4)cc23)c(-c2ccc(NC(=O)N(C)C)cc2)n1 (2.5 µM) 0, C[C@H](CN(C)C)Oc1nc(Nc2cc3cccc(Cl)c3cn2)cnc1C#N (10 µM) 0, Cc1cccc(Cn2nc(C3CC3)c3c(NC(=O)c4cnc5cc(OCCN6CCN(C)CC6)ccn45)cccc32)n1 (10 µM) 0
